These are yes or no findings as the source states them, for the method shown. Binding seen in cells or lysates may run through a third protein. Some entries that bind do so weakly or less than the wild type.
Biological target: T1, TGFBR1 in the Smad7 Co-IP (UniProt P36897)
T1 sequence: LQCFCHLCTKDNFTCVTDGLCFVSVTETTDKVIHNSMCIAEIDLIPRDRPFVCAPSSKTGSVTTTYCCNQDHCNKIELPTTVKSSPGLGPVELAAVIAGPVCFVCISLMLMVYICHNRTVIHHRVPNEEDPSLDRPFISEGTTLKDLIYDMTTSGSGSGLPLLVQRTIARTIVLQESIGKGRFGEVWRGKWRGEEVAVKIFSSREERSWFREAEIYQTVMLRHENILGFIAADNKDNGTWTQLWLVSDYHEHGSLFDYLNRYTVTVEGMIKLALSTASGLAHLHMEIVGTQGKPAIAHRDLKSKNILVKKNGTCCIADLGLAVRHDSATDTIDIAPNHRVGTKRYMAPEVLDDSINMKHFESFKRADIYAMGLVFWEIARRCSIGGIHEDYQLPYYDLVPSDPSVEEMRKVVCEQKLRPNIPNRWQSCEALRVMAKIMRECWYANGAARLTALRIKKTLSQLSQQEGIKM
Assay: co-IP; HEK293T cells and fibroblasts, with miR-17-5p overexpression or inhibition; lysates incubated with indicated antibodies and Protein A/G agarose at 4 °C overnight; immunoblot

Protein sequences, listed by entry. Tags and fused reporters are not part of them.
UniProt O15105: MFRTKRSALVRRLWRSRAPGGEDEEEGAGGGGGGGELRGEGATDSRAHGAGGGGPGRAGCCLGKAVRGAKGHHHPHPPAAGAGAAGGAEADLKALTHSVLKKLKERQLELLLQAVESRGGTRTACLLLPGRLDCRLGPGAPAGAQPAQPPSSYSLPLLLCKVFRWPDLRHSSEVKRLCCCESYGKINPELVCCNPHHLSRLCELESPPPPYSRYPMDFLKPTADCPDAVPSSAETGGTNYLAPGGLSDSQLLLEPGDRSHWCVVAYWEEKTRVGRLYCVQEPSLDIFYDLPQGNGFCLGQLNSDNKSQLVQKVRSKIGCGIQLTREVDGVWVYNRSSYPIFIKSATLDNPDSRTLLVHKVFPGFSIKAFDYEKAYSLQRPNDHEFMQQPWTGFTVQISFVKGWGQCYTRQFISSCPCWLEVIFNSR

For Smad7 (from UniProt O15105 1-426), the binding was “binds”.
